Measurements: the supplement of paper PMC5407854, “Inhibitor of ppGalNAc-T3-mediated O-glycosylation blocks cancer cell invasiveness and lowers FGF23 levels” (eLife, 2017)
The list shows a part of the results. Most entries show no effect beyond the scatter of the controls.

Assays:
ppGalNAc-T3 sensor = assay: T3 sensor activation Q score (MG/GFP ratio z-score vs DMSO controls) (SD units); higher = more sensor activation (inhibition of ppGalNAc-T3 glycosylation); conditions: HEK293 sensor cells; 10 µM; 6 h
Procedure: (§1)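 Cells were treated with compound at 10 uM for 6 h, then MG/GFP ratio was read by flow cytometry (10,000 cells per well, duplicate wells). Q = (R - R_neg)/SD_neg relative to DMSO vehicle controls; the signal rises when the glycosyltransferase is inhibited.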

ppGalNAc-T2 sensor = assay: T2 sensor activation Q score (MG/GFP ratio z-score vs DMSO controls) (SD units); higher = more sensor activation (inhibition of ppGalNAc-T2 glycosylation); conditions: HEK293 sensor cells; 10 µM; 6 h
Procedure: as §1

SMILES	T3 sensor activation Q score (ppGalNAc-T3 sensor)	T2 sensor activation Q score (ppGalNAc-T2 sensor)
Nc1ccc(C(=O)c2ccccc2)cc1[N+](=O)[O-]	0.06	-0.285
CC(CCN1CCN(c2ccccn2)CC1)c1ccccc1 (stereo not drawn)	-0.225	0.89
O=C(CCC1CCCC1)N1CCN(C(=O)c2cccs2)CC1	-0.16	0.06
CN(Cc1ccccc1)C(=O)c1ccc(Cl)cc1Cl	-0.1	0.37
O=C1C(Nc2cccc(O)c2)=C(N2CCCCC2)C(=O)c2ccccc21	1.95	1.3
Cc1nc2nc(-c3ccccc3)cc(-c3ccccc3)n2n1	1.25	-0.43
COc1ccccc1NC(=O)c1cccc(C)c1	-0.79	-0.655
Nc1ccc(CCC(=O)O)cc1	0.65	0.435
CCN(CC)C(=O)C1CCCN(Cc2ccc(C)cc2C)C1 (stereo not drawn)	1.8	0.56
O=C1CC(NCc2ccccc2)C(=O)N1c1cccc(Cl)c1 (stereo not drawn)	0.485	-1.2
COc1cc(OC)c(OC)cc1CN1CCC(N2CCCCC2)CC1	0.865	-0.91
COc1ccc(CN2CCC(O)CC2)c(OC)c1	1.12	0.385
O=Cc1ccc(-c2ccc([N+](=O)[O-])cc2)o1	-0.735	-0.27
Cc1ccc(NC(=O)CCC(=O)O)cc1F	-0.025	-0.9
CC1CCC(NCCN2CCOCC2)CC1 (stereo not drawn)	-0.825	-0.01
COc1cc(Cc2ccc(NC(C)=O)c(OC)c2)ccc1NC(C)=O	-0.115	-0.315
C=CCSc1nc2sc3c(c2c(=O)n1-c1ccccc1)CCN(C)C3	-0.295	-0.38
CC(C)(C)c1ccc(-c2nc3cc(N)ccc3o2)cc1	0.225	0.715
O=C(Nc1ccc(Br)cc1)c1cccs1	-0.49	-0.485

Record cards, as listed above. Order of values: T3 sensor activation Q score (ppGalNAc-T3 sensor) | T2 sensor activation Q score (ppGalNAc-T2 sensor)
`Nc1ccc(CCC(=O)O)cc1` reads 0.65 | 0.435
`COc1ccccc1NC(=O)c1cccc(C)c1` reads -0.79 | -0.655
